No constants are given. Whether binding was seen depends on the method and setting. Some binding calls cover weakened binding; strength is not graded here. Ends that are not written are not given here.
Experiments:
[1] = target: T1, mouse MUC16 on ID8 and BR5-FVB1 cells (mouse); experiment: Western blot of ID8 (mouse) cell extract, primary hybridoma supernatant 1:10
T1 sequence: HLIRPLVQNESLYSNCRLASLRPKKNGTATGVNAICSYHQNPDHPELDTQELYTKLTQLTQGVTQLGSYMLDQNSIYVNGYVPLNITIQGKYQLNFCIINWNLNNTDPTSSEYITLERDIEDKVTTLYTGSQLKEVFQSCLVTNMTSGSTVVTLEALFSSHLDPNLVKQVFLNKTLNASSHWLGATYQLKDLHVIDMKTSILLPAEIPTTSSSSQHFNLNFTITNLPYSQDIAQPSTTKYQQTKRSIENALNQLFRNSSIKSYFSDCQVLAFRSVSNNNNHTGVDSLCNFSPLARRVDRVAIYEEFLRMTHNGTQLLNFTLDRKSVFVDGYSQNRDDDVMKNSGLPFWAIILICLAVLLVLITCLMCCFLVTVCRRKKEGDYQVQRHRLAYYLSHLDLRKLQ

[2] = target: T1, mouse MUC16 on ID8 and BR5-FVB1 cells (mouse); experiment: FACS on ID8 (mouse) cells, purified antibody followed by goat anti-mouse IgG2b-PE
[3] = target: T1, mouse MUC16 on ID8 and BR5-FVB1 cells (mouse); experiment: Western blot of BR5-FVB1 (mouse) cell extract, primary hybridoma supernatant 1:10

Measured: binding

B1: 12B10-3G10 (antibody, V domains shown)
VH: EVKLEESGGGLVQPKGSLKLSCAASGFTFNTYAVHWVRQAPGKGMEWVARIRSKSGNYATYYADSVKDRFTISRNDSQSMLYLQMNNLKTEDTAIYYCVRAGNNGAFPYWGQGTTVTVSS
VL: DIELTQSPSSLSASLGGRVTITCKASQDIKKYIAWYQHKPGKTPRLLIHFTSTLQTGIPSRFSGRGSGRDYSFSISNLESEDIATYYCLQYDSLYTFGGGTKLEIKR
notes: Mouse mAb against mouse MUC16, IgG 2b; also called mouse 12B10 mAb; 12B10-3F7
binds: [1] | [2] | [3]
